Data reported in patent US8067638B2, “Amide derivative and insecticide containing the same” (Mitsui Chemicals, Inc., priority 2005, dated 2011).
Some results were stated once for a whole list of compounds, not compound by compound.

Experiments:
[1] = test system: Common Cutworm (Spodoptera litura); assay: Insecticidal test on common cutworm (Spodoptera litura); type: in vivo; details: at 100 ppm; cabbage leaf immersed; second-instar larvae; counted 6 days after release; 25° C.
Experimental: Insecticidal Test on Common Cutworm (Spodoptera litura)
(§1) A piece of cabbage leaf was immersed for 30 seconds in a liquid chemical prepared by diluting a test compound to a prescribed concentration. After air-drying, the piece was put into a 7-cm polyethylene cup and second-instar larvae of common cutworms were released thereinto. The polyethylene cups were set in an isothermal chamber thermostated at 25° C. From the release 6 days later, the dead and alive were counted. The test was carried out with two replications of 5 insects per a plot.

[2] = test system: Diamondback Moth (Plutella xylostella); assay: Insecticidal test on diamondback moth (Plutella xylostella); type: in vivo; details: at 100 ppm; cabbage leaf immersed; second-instar larvae; counted 6 days after release; 25° C.
Experimental: Insecticidal Test on Diamondback Moth (Plutella xylostella)
as §1, with “diamondback moths” for “common cutworms”

SMILES | mortality [1] [%] | mortality [2] [%]
O=C(Nc1cccc(C(=O)Nc2c(Cl)cc(SC(F)(F)C(F)C(F)(F)F)cc2Br)c1)c1ccccc1 (stereo not drawn) [2-213] | ≥ 70 | ≥ 70
Cc1cc(C(F)(C(F)(F)F)C(F)(F)F)cc(C)c1NC(=O)c1cccc(NS(=O)(=O)c2ccccc2)c1 [4-1] | ≥ 70 | ≥ 70
CN(C(=O)c1ccccc1F)c1cccc(C(=O)Nc2c(Cl)cc(SC(F)(F)C(F)C(F)(F)F)cc2Br)c1 (stereo not drawn) [2-217] | ≥ 70 | ≥ 70
Cc1cc(OC(F)(F)C(F)C(F)(F)F)cc(C)c1NC(=O)c1cccc(NC(=O)c2ccccc2)c1 (stereo not drawn) [2-189] | ≥ 70 | ≥ 70
Cc1cc(C(F)(C(F)(F)F)C(F)(F)F)cc(C)c1NC(=O)c1cccc(NS(C)(=O)=O)c1 [4-23] | ≥ 70 | ≥ 70
Cc1cc(C(F)(C(F)(F)F)C(F)(F)F)cc(C)c1NC(=O)c1cccc(N(C)C)c1 [5-27] | ≥ 70 | ≥ 70
Cc1cc(C(F)(C(F)(F)F)C(F)(F)F)cc(C)c1NC(=O)c1cccc(NS(=O)(=O)c2ccccc2[N+](=O)[O-])c1 [4-10] | ≥ 70 | ≥ 70
CS(=O)(=O)c1cc(C(F)(C(F)(F)F)C(F)(F)F)ccc1NC(=O)c1cccc(NC(=O)c2ccc([N+](=O)[O-])cc2)c1 [1-426] | ≥ 70 | ≥ 70
CN(C(=O)c1ccccc1F)c1cccc(C(=O)Nc2c(Br)cc(OC(F)(F)C(F)C(F)(F)F)cc2Br)c1 (stereo not drawn) [2-160] | ≥ 70 | ≥ 70
O=C(Nc1c(Cl)cc(C(F)(C(F)(F)F)C(F)(F)F)c2c1CCC2)c1cccc(NC(=O)c2ccccc2F)c1 [1-599] | ≥ 70 | ≥ 70
O=C(Nc1c(Br)cc(OC(F)(F)C(F)C(F)(F)F)cc1C(F)(F)F)c1cccc(NC(=O)c2cccnc2Cl)c1 (stereo not drawn) [2-186] | ≥ 70 | ≥ 70
Cc1cc(C(F)(C(F)(F)F)C(F)(F)F)cc(OS(C)(=O)=O)c1NC(=O)c1cccc(N(C)C(=O)c2ccccc2)c1 [1-568] | ≥ 70 | ≥ 70
CCS(=O)(=O)Nc1cccc(C(=O)Nc2c(C)cc(C(F)(C(F)(F)F)C(F)(F)F)cc2C)c1 [4-25] | ≥ 70 | ≥ 70
Cc1cc(C(F)(C(F)(F)F)C(F)(F)F)cc(C)c1NC(=O)c1cccc(Nc2cccc(C(F)(F)F)c2)c1 [5-12] | ≥ 70 | ≥ 70
O=C(Nc1cccc(C(=O)Nc2c(Br)cc(Br)cc2C(F)(F)F)c1)c1ccccc1 [1-316] | ≥ 70 | ≥ 70
CN(C(=O)c1ccccc1)c1cccc(C(=O)Nc2c(Br)cc(OC(F)(F)C(F)C(F)(F)F)cc2C(F)(F)F)c1 (stereo not drawn) [2-184] | ≥ 70 | ≥ 70
CN(C(=O)c1ccccc1)c1cccc(C(=O)Nc2c(Br)cc(Br)cc2SC(F)(F)F)c1 [1-159] | ≥ 70 | ≥ 70
O=C(Nc1cccc(C(=O)Nc2c(Br)cc(OC(F)(F)C(F)C(F)(F)F)cc2C(F)(F)F)c1)c1ccccc1 (stereo not drawn) [2-185] | ≥ 70 | ≥ 70
O=C(Nc1cccc(C(=O)Nc2c(Br)cc(C(F)(C(F)(F)F)C(F)(F)F)c3c2CCC3)c1)c1ccccc1 [1-596] | ≥ 70 | ≥ 70
O=C(Nc1cccc(C(=O)Nc2c(Br)cc(SC(F)(F)C(F)C(F)(F)F)cc2Br)c1)c1ccccc1 (stereo not drawn) [2-210] | ≥ 70 | ≥ 70
CSCc1cc(C(F)(C(F)(F)F)C(F)(F)F)cc(C(F)(F)F)c1NC(=O)c1cccc(NC(=O)c2ccccc2)c1 [1-573] | ≥ 70 | ≥ 70
O=C(Nc1c(Br)cc(C(F)(C(F)(F)F)C(F)(F)F)c2c1CCC2)c1cccc(NC(=O)c2ccccc2F)c1 [1-597] | ≥ 70 | ≥ 70
Cc1cc(C(F)(C(F)(F)F)C(F)(F)F)ccc1NC(=O)c1cccc(NC(=O)c2ccccc2I)c1 [1-421] | ≥ 70 | ≥ 70

SMILES | mortality [1] [%] | mortality [2] [%]
O=C(Nc1cccc(C(=O)Nc2c(Cl)cc(C(F)(C(F)(F)F)C(F)(F)F)c3c2CCC3)c1)c1ccccc1 [1-598] | ≥ 70 | ≥ 70
Cc1cc(C(C(F)(F)F)C(F)(F)F)cc(C)c1NC(=O)c1cccc(NC(=O)c2ccccc2)c1 [1-386] | ≥ 70 | ≥ 70
Cc1cc(C(F)(C(F)(F)F)C(F)(F)F)cc(O)c1NC(=O)c1cccc(N(C)C(=O)c2ccccc2)c1 [1-567] | ≥ 70 | ≥ 70
O=C(Nc1c(Cl)cc(C(F)(F)F)cc1Cl)c1cccc(NC(=O)c2c(F)cccc2F)c1 [1-315] | ≥ 70 | ≥ 70
Cc1cc(OS(=O)(=O)C(F)(F)F)ccc1NC(=O)c1cccc(NC(=O)c2ccccc2)c1 [1-372] |  | ≥ 70
Cc1cc(C(F)(C(F)(F)F)C(F)(F)F)cc(O)c1NC(=O)c1cccc(NC(=O)c2ccccc2)c1 [1-566] |  | ≥ 70
O=C(Nc1cccc(C(=O)Nc2c(Cl)cc(C(F)(F)F)cc2C(F)(F)F)c1)c1ccccc1 [1-366] |  | ≥ 70
O=C(Nc1c(Cl)cc(C(F)(F)F)cc1Br)c1cccc(NC(=O)c2ccccc2F)c1 [1-416] |  | ≥ 70
Cc1cc(C(F)(C(F)(F)F)C(F)(F)F)cc(C)c1NC(=O)c1cccc(Nc2nc(N)n[nH]2)c1 [5-25] |  | ≥ 70
O=C(Nc1cccc(C(=O)Nc2ccc(C(F)(C(F)(F)F)C(F)(F)F)cc2Cl)c1)c1ccccc1 [1-423] |  | ≥ 70
Cc1cc(C(F)(C(F)(F)F)C(F)(F)F)cc(C)c1NC(=O)c1cccc(N(C)C)c1F [5-26] |  | ≥ 70
Cc1cc(C(F)(C(F)(F)F)C(F)(F)F)ncc1NC(=O)c1cccc(NC(=O)c2ccccc2)c1 [1-441] |  | ≥ 70
Cn1nc(C(F)(F)F)c(Br)c1NC(=O)c1cccc(NC(=O)c2ccccc2)c1 [1-462] |  | ≥ 70
Cc1cc(C(F)(C(F)(F)F)C(F)(F)F)cc(C)c1NC(=O)c1cccc(N(C)S(=O)(=O)CC(F)(F)F)c1 [4-28] |  | ≥ 70
CN(C(=O)c1cccnc1Cl)c1cccc(C(=O)Nc2c(Br)cc(OC(F)(F)C(F)C(F)(F)F)cc2[N+](=O)[O-])c1 (stereo not drawn) [2-188] |  | ≥ 70
Cc1cc(-c2cccs2)cc(C)c1NC(=O)c1cccc(NC(=O)c2ccccc2Cl)c1 [1-380] |  | ≥ 70
O=C(Nc1cccc(C(=O)Nc2c(Cl)cc(OC(F)(F)F)cc2Cl)c1)c1ccccc1 [1-437] |  | ≥ 70
O=C(Nc1cccc(C(=O)Nc2c(OC(F)(F)C(F)C(F)(F)F)cc(OC(F)(F)C(F)C(F)(F)F)cc2OC(F)(F)C(F)C(F)(F)F)c1)c1ccccc1 (stereo not drawn) [2-207] |  | ≥ 70
O=C(Nc1c(Br)cc(C(F)(F)F)cc1Br)c1cccc(NC(=O)c2ccccc2F)c1 [1-428] |  | ≥ 70
Cc1ccccc1S(=O)(=O)Nc1cccc(C(=O)Nc2c(C)cc(C(F)(C(F)(F)F)C(F)(F)F)cc2C)c1 [4-2] |  | ≥ 70
Cc1cc(OC(F)(F)C(F)C(F)(F)F)cc(C)c1NC(=O)c1cccc(NC(=O)c2cccnc2Cl)c1 (stereo not drawn) [2-220] |  | ≥ 70
O=C(Nc1cccc(C(=O)Nc2c(Br)cc(OC(F)(F)C(F)C(F)(F)F)c3ncccc23)c1)c1ccccc1 (stereo not drawn) [2-197] |  | ≥ 70
